For at least one entry, the source does not settle the construct or the ends of the probe. A weaker result is weaker than the reference pair of the same experiment. At least one verdict rests on a figure or table, not on a statement of the authors.

The data set concerns NSUN4 + MTERF4. The experiment in a line: EMSA. The conditions noted are these: protein 0-2.56 uM; EMSA with 40 ng RNA and 0-2.56 uM protein; pH and temperature not given; recombinant protein. On the technique in general: In EMSA bound probe runs differently from free probe, usually more slowly.
In the case of “AUGUAGCAAAAUAGUGGGAAGAUUUAUAGGUAG [ss16S:1377-1409]”, the binding result is reported as “binds more weakly”.

With “CUACCUAAGAACAGCUAAAAGAGCACACCCGUCU [ss16S:1343-1376]”, the binding result is reported as “binds more weakly”.

In the case of “CUACCUAAGAACAGCUAAAAGAGCACACCCGUCUAUGUAGCAAAAUAGUGGGAAGAUUUAUAGGUAG [ds16S:1343-1409]”, the binding result was “binds”.

As for “UUCAAAUUCCUCCCUGUACGAAAGGACAAGAGAAAUAAGGCCUACUUCACAAAGCGCCUUCCCCCG [ds16S:2532-2597]”, the binding result was “binds”.
